The record followed here is patent publication US9441014B2, “Skin permeating and cell entering (SPACE) peptides and methods of use thereof” (The Regents of the University of California, priority 2010, dated 2016).

The data set concerns porcine skin. Briefly: In vitro phage display screen for skin penetration (receiver compartment). The following applies: five rounds of selection.

Consider “ACHSALTKHCG (identified using phage display) [AC-HSALTKH-CG]”, for which the “frequency of occurrence of sequence in phage display screen” value is listed as “high frequency”.

For “ACSTHFIDTCG (identified using phage display) [AC-STHFIDT-CG]”, the “frequency of occurrence of sequence in phage display screen” value was “relatively high frequency in rounds 4 and 5”.
